Measurements reported in PubChem BioAssay AID1259280 (Sanger Institute, 2017)

- Test: 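Essential kinases and drug-combination synergies in SNU407 cells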 (primary screen)
- Cell system: human SNU407 colorectal cancer cells
- Knock-down reagent: siRNA pool against human genes
- Conditions: anchor drugs BYL719 at 1 µM, cetuximab at 5 µg/ml or trametinib at 10 nM, or DMSO vehicle alone; exposure time not given
- Measurement: 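Viability relative to non-targeting control siRNA, expressed as robust z-score, plus a synergy score for each of the three anchor drugs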
- Scale: viability z-score, no drug: higher = more cells survive the knock-down
- Call rule: 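a knock-down counts as essential when its robust viability z-score without drug is below -3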
- Calls: active = essential (knock-down alone kills cells); inactive = no change without drug
The deposit covers 794 reagents; below is an unselected part. Over the whole deposit, 12 (1.5%) are marked active. 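Calls cover knock-down without drug only; synergy scores stand apart, values above 0.15 being treated as synergy.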 Unmarked entries are inactive. Further read-outs or replicates are left out here. Not given: the amount of reagent, the time to read-out.

target gene | viability z-score, no drug
CDK11A | -2.4
PRKCD | -0.62
KCNH2 | -0.454
PIP5K1A | -1.28
AKT1 | -0.592
CDK12 | 0.385
SPHK1 | 0.54
PRKY | 0.738
CDKN2B | -0.0515
PAK4 | 0.864
DLG4 | -0.362
CSNK1G3 | 0.901
CAMK2A | 0.547
NAGK | -3.3 (active)
PI4KB | 0.901
MAPK9 | 0.901
MAP3K7 | 0.901
CMPK1 | 0.901
SMC1A | -1.2
PRKACG | 0.901
EPHA5 | 0.901
EPHA3 | 0.409
PKDCC | 0.901
NRBP2 | -0.407
CDK8 | 0.901
MAP4K2 | -0.48
PRKCG | -0.2

A portion taken from the entries so far:
target gene | viability z-score, no drug
SPHK1 | 0.54
PRKY | 0.738
CDKN2B | -0.0515
PAK4 | 0.864
DLG4 | -0.362
CSNK1G3 | 0.901

Continued:
target gene | viability z-score, no drug
ULK4 | -1.21
LMTK1 | -1.24
INSR | 0.531
MAP2K4 | 0.334
PLK4 | -1.49
BCKDK | -0.645
MAP3K8 | -0.478
EEF2K | -2.06
RPS6KB2 | 0.901
SIK2 | -1.71
PIK3CD | 0.901
LIMK2 | 0.266
ADCK5 | -1.84
ARID1A | 0.604
WNK1 | 0.726
OBSCN | -0.401
MAP4K5 | -0.914
PIM3 | -0.358
RNASEL | -0.511
TNNI3K | 0.901
IDH2 | 0.901
BRSK1 | 0.901
KMT2B | -0.681
